Amino acid sequences for entries named in this document (tags omitted). Residues count along the entry.
UniProt O75417, 1-894: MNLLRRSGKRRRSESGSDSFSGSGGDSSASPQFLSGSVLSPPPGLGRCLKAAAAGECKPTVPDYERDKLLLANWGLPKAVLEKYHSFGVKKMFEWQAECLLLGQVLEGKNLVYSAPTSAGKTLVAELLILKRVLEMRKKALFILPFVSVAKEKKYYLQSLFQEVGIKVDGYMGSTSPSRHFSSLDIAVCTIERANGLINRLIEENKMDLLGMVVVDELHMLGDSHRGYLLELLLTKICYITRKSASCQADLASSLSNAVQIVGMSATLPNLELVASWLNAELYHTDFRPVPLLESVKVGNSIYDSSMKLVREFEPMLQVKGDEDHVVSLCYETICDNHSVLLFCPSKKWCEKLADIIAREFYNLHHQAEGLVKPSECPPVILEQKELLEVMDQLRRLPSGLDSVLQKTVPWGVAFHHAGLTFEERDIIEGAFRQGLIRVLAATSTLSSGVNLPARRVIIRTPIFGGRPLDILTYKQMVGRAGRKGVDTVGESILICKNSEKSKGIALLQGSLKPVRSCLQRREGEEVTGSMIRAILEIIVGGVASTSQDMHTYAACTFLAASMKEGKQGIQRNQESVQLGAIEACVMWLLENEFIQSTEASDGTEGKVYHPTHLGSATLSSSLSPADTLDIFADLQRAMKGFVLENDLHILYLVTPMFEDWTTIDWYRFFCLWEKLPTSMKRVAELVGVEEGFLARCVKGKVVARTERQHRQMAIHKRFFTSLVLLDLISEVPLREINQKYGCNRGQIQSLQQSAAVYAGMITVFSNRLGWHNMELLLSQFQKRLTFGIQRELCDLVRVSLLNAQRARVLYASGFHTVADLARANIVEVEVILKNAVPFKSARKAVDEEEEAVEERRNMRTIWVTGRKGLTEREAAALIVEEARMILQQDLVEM

According to publication PMC6764996:

How the values were obtained:
[1] = target: T1, Polθ-pol (polymerase domain) (human) (UniProt O75417); assay: fluorescence anisotropy; conditions: 1 mM ATP, 10 mM MgCl2, KD printed only in figure, higher than full-length Polθ, Anisotropy: 25 mM Tris-HCl pH 8.8, 1 mM DTT, 0.01% NP-40, 10 mM MgCl2, 10% glycerol, 0.1 mg/ml BSA, 30 mM NaCl, room temp, at least 30 min, 10 nM FAM-ssDNA, recombinant protein, label: 5' FAM, single-stranded DNA
T1 sequence (looked up, limits assumed): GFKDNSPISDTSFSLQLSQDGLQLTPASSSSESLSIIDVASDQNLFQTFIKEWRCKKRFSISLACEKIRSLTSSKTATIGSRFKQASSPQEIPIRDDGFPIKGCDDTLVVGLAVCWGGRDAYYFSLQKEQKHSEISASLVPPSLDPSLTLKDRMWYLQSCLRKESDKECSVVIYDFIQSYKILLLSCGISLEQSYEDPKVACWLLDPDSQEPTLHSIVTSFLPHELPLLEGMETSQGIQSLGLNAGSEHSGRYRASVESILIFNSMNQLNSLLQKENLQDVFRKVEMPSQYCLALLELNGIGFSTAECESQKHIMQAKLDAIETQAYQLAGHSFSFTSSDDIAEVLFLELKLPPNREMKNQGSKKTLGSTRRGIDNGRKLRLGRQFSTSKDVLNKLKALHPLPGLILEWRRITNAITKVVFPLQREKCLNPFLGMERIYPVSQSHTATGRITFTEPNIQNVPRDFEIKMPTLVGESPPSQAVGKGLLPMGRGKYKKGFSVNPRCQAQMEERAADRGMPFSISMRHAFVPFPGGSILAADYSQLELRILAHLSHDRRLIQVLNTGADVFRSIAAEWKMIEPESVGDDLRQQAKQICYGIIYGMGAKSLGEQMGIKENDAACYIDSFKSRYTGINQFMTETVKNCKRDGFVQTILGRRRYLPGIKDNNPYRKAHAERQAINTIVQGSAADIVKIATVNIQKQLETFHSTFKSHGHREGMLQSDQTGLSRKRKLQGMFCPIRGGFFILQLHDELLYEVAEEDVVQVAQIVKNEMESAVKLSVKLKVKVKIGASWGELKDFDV

[2] = target: Polθ-hel (helicase domain) (human) (UniProt O75417); assay: fluorescence anisotropy; conditions: 1 mM ATP, Anisotropy: 25 mM Tris-HCl pH 8.8, 1 mM DTT, 0.01% NP-40, 10 mM MgCl2, 10% glycerol, 0.1 mg/ml BSA, 30 mM NaCl, room temp, at least 30 min, 10 nM FAM-ssDNA, recombinant protein, label: 5' FAM, single-stranded DNA

Sequence: TTTTTTTTTTTTTTTTTTTTTTTTTTTTT [RP316FAM5 (29 nt ssDNA)]
- binding result [1]: binds more weakly
- binding result ([2]; 10 mM MgCl2, KD printed only in figure, higher than full-length Polθ): binds more weakly
- binding result ([2]; without ATP, no significant effect of ATP on binding): binds

For at least one entry, the source does not settle the construct or the ends of the probe. Weaker means in comparison with the reference protein, sequence or condition of that experiment. For part of these data: Where a protein sequence is shown, tags need not be part of it. For part of these data: At least one verdict rests on a figure or table, not on a statement of the authors.
